Source: the supplement of paper PMC4604168 (melanoma cell lines)
Some of the results follow. Single values are uncertain, as repeats are few or missing.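 Imaging used 1,536-well plates; nuclei positive for cleaved PARP by antibody were divided by total DNA-stained nuclei to yield the apoptosis fraction. Doses for screening kept most cells viable, and cell lines differ markedly in resting and induced cleaved-PARP levels.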

How the values were obtained:
Assay in all cases: cleaved PARP positive nuclei fraction relative to DMSO control; melanoma cells; higher = more apoptosis
Conditions in all cases: library dose: low library concentration; 72 h
[1] = test system: 501Mel
[2] = test system: A101D
[3] = test system: A2058
[4] = test system: C32
[5] = test system: CBRC008 (line from a melanoma biopsy)
[6] = test system: CBRC014 (line from a melanoma biopsy)
[7] = test system: CBRC016 (line from a melanoma biopsy)
[8] = test system: CBRC017 (line from a melanoma biopsy)
[9] = test system: COLO792
[10] = test system: COLO800
[11] = test system: COLO829
[12] = test system: G361
[13] = test system: IPC-298
[14] = test system: IST-MEL1
[15] = test system: LB2518-MEL
[16] = test system: LOXIMVI

Compound | cleaved PARP positive nuclei fraction [1] [%] | cleaved PARP positive nuclei fraction [2] [%] | cleaved PARP positive nuclei fraction [3] [%] | cleaved PARP positive nuclei fraction [4] [%] | cleaved PARP positive nuclei fraction [5] [%] | cleaved PARP positive nuclei fraction [6] [%] | cleaved PARP positive nuclei fraction [7] [%] | cleaved PARP positive nuclei fraction [8] [%] | cleaved PARP positive nuclei fraction [9] [%] | cleaved PARP positive nuclei fraction [10] [%] | cleaved PARP positive nuclei fraction [11] [%] | cleaved PARP positive nuclei fraction [12] [%] | cleaved PARP positive nuclei fraction [13] [%] | cleaved PARP positive nuclei fraction [14] [%] | cleaved PARP positive nuclei fraction [15] [%] | cleaved PARP positive nuclei fraction [16] [%]
CCCS(=O)(=O)Nc1ccc(F)c(C(=O)c2c[nH]c3ncc(Cl)cc23)c1F + c1cc(-c2cnn3cc(-c4ccc(OCCN5CCCCC5)cc4)cnc23)ccn1 [Dorsomorphin] (first compound 0.08 µM, partner dose 0.4 µM) | 70.6 | 39.3 | 121 | 41.7 | 45.9 | 109 | 125 | 118 | 100 | 149 | 51.7 | 56.5 | 132 | 93.7 | 67.3 | 177
Nc1ncn([C@H]2C[C@H](O)[C@@H](CO)O2)c(=O)n1 [decitabine] + Oc1cc(-c2nc(-c3ccccc3)[nH]c2-c2ccncc2)ccc1Cl [L779450] (first compound 0.1 µM, partner dose 0.2 µM) | 81.9 | 32.9 | 67 | 95.3 | 188 | 127 | 25.5 | 89 | 176 | 36.1 | 143 | 121 | 150 | 98.4 | 93.2 | 40.2
O=C(O)[C@@H]1[O][Sb](=[O])([O][Sb]2(=[O])[O][C@H]([C@H](O)CO)[C@H](O)[C@H](C(=O)O)[O]2)[O][C@H]([C@H](O)CO)[C@@H]1O (some centres not stated) [stibogluconate] + CCCCCCCCCCCC1=C(O)C(=O)C=C(O)C1=O [Embelin] (first compound 2 µM, partner dose 1.2 µM) | 303 | 5250 | 60.9 | 225 | 96.6 | 94.6 | 80.4 | 137 | 67.3 | 65.8 | 21.5 | 118 | 43.8 | 24.8 | 74.6 | 21.7
Cn1c(=O)n(-c2ccc(C(C)(C)C#N)cc2)c2c3cc(-c4cnc5ccccc5c4)ccc3ncc21 + O=C1NC(=O)/C(=C/c2ccc(-c3ccc(F)cc3O)o2)S1 [AS252424] (first compound 0.004 µM, partner dose 1 µM) | 68.9 | 48.3 | 181 | 45 | 197 | 94.2 | 94 | 106 | 50 | 147 | 118 | 125 | 63.4 | 120 | 78.1 | 48
CO[C@H]1C[C@@H]2CC[C@@H](C)[C@@](O)(O2)C(=O)C(=O)N2CCCC[C@H]2C(=O)O[C@H]([C@H](C)C[C@@H]2CC[C@@H](OCCO)[C@H](OC)C2)CC(=O)[C@H](C)/C=C(\C)[C@@H](O)[C@@H](OC)C(=O)[C@H](C)C[C@H](C)/C=C/C=C/C=C/1C [everolimus] + c1cc(-c2cnn3cc(-c4ccc(OCCN5CCCCC5)cc4)cnc23)ccn1 [Dorsomorphin] (first compound 0.02 µM, partner dose 0.4 µM) | 697 | 49.7 | 259 | 86.5 | 47.9 | 92.1 | 53.8 | 74.6 | 31 | 116 | 93.7 | 351 | 114 | 44 | 81.6 | 91.7
CC(C)C[C@H](NC(=O)[C@H](Cc1ccccc1)NC(=O)c1cnccn1)B(O)O [Bortezomib] + COC(=O)c1sccc1S(=O)(=O)Nc1ccc(Nc2ccccc2)cc1OC [GSK0660] (first compound 0.001 µM, partner dose 1 µM) | 333 | 105 | 95.6 | 130 | 535 | 262 | 419 | 232 | 58.8 | 66.9 | 113 | 3890 | 238 | 117 | 164 | 102
Cn1c(=O)n(-c2ccc(C(C)(C)C#N)cc2)c2c3cc(-c4cnc5ccccc5c4)ccc3ncc21 + O=C(O)C(=O)Nc1sc2c(c1C(=O)O)CCNC2 [TCS401] (first compound 0.004 µM, partner dose 1.66667 µM) | 69.2 | 23.6 | 14 | 233 | 60.7 | 96.2 | 70.4 | 137 | 220 | 165 | 56.1 | 167 | 96.6 | 159 | 66.8 | 139
C=C(c1ccc(C(=O)O)cc1)c1cc2c(cc1C)C(C)(C)CCC2(C)C [Bexarotene] + O=S(=O)(c1ccccc1)N(CC(F)(F)F)c1ccc(C(O)(C(F)(F)F)C(F)(F)F)cc1 [T0901317] (first compound 2 µM, partner dose 1.4 µM) | 89.3 | 13.5 | 75.9 | 161 | 360 | 116 | 318 | 142 | 61.9 | 75.3 | 20.7 | 171 | 56 | 109 | 133 | 67.7
C[C@@H](Oc1cc(-c2cnn(C3CCNCC3)c2)cnc1N)c1c(Cl)ccc(F)c1Cl [Crizotinib] + O=S(=O)(c1ccccc1)N(CC(F)(F)F)c1ccc(C(O)(C(F)(F)F)C(F)(F)F)cc1 [T0901317] (first compound 0.2 µM, partner dose 1.4 µM) | 68 | 19.9 | 176 | 89.3 | 83 | 81.6 | 34.2 | 103 | 68 | 69.6 | 43 | 185 | 102 | 115 | 70.2 | 173
C[C@@H](Oc1cc(-c2cnn(C3CCNCC3)c2)cnc1N)c1c(Cl)ccc(F)c1Cl [Crizotinib] + O=c1cc(-c2cccc3c2Sc2ccccc2S3)oc(N2CCOCC2)c1 [KU55933] (first compound 0.2 µM, partner dose 1 µM) | 52.4 | 19.9 | 40.6 | 97.3 | 235 | 77.9 | 74 | 69.6 | 97.4 | 134 | 95.2 | 86.9 | 91.3 | 39.8 | 60.5 | 43.4
Cc1cc(Nc2cc(N3CCN(C)CC3)nc(/C=C/c3ccccc3)n2)n[nH]1 + Cn1cc(/C=C2\C(=O)Nc3cccnc32)c2ccccc21 [GW441756] (first compound 0.04 µM, partner dose 0.4 µM) | 33 | 35.6 | 52.5 | 53.6 | 50.1 | 99.3 | 35.9 | 96.2 | 76.3 | 29.4 | 184 | 93.4 | 161 | 57.3 | 61 | 94.1
CNC(=O)c1cc(Oc2ccc(NC(=O)Nc3ccc(Cl)c(C(F)(F)F)c3)cc2)ccn1 [sorafenib] + Oc1nc(-c2ccc(C(F)(F)F)cc2)nc2c1CSCC2 [XAV939] (first compound 0.4 µM, partner dose 2 µM) | 61.9 | 12.6 | 118 | 124 | 185 | 39.6 | 77.1 | 122 | 60.7 | 86.9 | 126 | 96.3 | 68.7 | 141 | 32.9 | 62.6
Cn1c(=O)n(-c2ccc(C(C)(C)C#N)cc2)c2c3cc(-c4cnc5ccccc5c4)ccc3ncc21 + Cc1cc([N+](=O)[O-])ccc1NS(=O)(=O)c1cc(Cl)ccc1Cl [FH535] (first compound 0.004 µM, partner dose 1 µM) | 72.8 | 25.5 | 32.3 | 109 | 1060 | 128 | 161 | 276 | 32.1 | 50.1 | 56.2 | 186 | 195 | 157 | 132 | 83.1
CO[C@H]1C[C@@H]2CC[C@@H](C)[C@@](O)(O2)C(=O)C(=O)N2CCCC[C@H]2C(=O)O[C@H]([C@H](C)C[C@@H]2CC[C@@H](OCCO)[C@H](OC)C2)CC(=O)[C@H](C)/C=C(\C)[C@@H](O)[C@@H](OC)C(=O)[C@H](C)C[C@H](C)/C=C/C=C/C=C/1C [everolimus] + CCCCCCCCCCCC1=C(O)C(=O)C=C(O)C1=O [Embelin] (first compound 0.02 µM, partner dose 1.2 µM) | 113 | 62.3 | 134 | 131 | 207 | 90.9 | 68.5 | 84.2 | 254 | 77.1 | 167 | 200 | 146 | 51.6 | 78.8 | 94.5
CNC(=O)c1cc(Oc2ccc(NC(=O)Nc3ccc(Cl)c(C(F)(F)F)c3)cc2)ccn1 [sorafenib] + O=C1NC(=O)/C(=C/c2ccc(-c3ccc(F)cc3O)o2)S1 [AS252424] (first compound 0.4 µM, partner dose 1 µM) | 78.5 | 11.4 | 69.1 | 81.3 | 140 | 98.2 | 29.9 | 81.5 | 126 | 30.3 | 34.3 | 60.1 | 203 | 160 | 31.5 | 65.6
CN1CCN(c2ccc3nc(-c4c(N)c5c(F)cccc5[nH]c4=O)[nH]c3c2)CC1 [Dovitinib] + O=C1NC(=O)/C(=C/c2ccc(-c3ccc(F)cc3O)o2)S1 [AS252424] (first compound 0.1 µM, partner dose 1 µM) | 82.5 | 20.4 | 44.9 | 77.8 | 118 | 97.4 | 49.5 | 54.3 | 146 | 51 | 45.1 | 122 | 96 | 51.9 | 79.6 | 195
C[C@@H](Oc1cc(-c2cnn(C3CCNCC3)c2)cnc1N)c1c(Cl)ccc(F)c1Cl [Crizotinib] + Cn1cc(/C=C2\C(=O)Nc3cccnc32)c2ccccc21 [GW441756] (first compound 0.2 µM, partner dose 0.4 µM) | 99.1 | 10.2 | 222 | 42.2 | 201 | 84.2 | 30 | 103 | 67.2 | 32.8 | 95.6 | 128 | 137 | 110 | 129 | 50.9

Some of the entries above in another layout:
Compound	cleaved PARP positive nuclei fraction [1] [%]	cleaved PARP positive nuclei fraction [2] [%]	cleaved PARP positive nuclei fraction [3] [%]	cleaved PARP positive nuclei fraction [4] [%]	cleaved PARP positive nuclei fraction [5] [%]	cleaved PARP positive nuclei fraction [6] [%]	cleaved PARP positive nuclei fraction [7] [%]	cleaved PARP positive nuclei fraction [8] [%]	cleaved PARP positive nuclei fraction [9] [%]	cleaved PARP positive nuclei fraction [10] [%]	cleaved PARP positive nuclei fraction [11] [%]	cleaved PARP positive nuclei fraction [12] [%]	cleaved PARP positive nuclei fraction [13] [%]	cleaved PARP positive nuclei fraction [14] [%]	cleaved PARP positive nuclei fraction [15] [%]	cleaved PARP positive nuclei fraction [16] [%]
C[C@@H](Oc1cc(-c2cnn(C3CCNCC3)c2)cnc1N)c1c(Cl)ccc(F)c1Cl [Crizotinib] + O=c1cc(-c2cccc3c2Sc2ccccc2S3)oc(N2CCOCC2)c1 [KU55933] (first compound 0.2 µM, partner dose 1 µM)	52.4	19.9	40.6	97.3	235	77.9	74	69.6	97.4	134	95.2	86.9	91.3	39.8	60.5	43.4
Cc1cc(Nc2cc(N3CCN(C)CC3)nc(/C=C/c3ccccc3)n2)n[nH]1 + Cn1cc(/C=C2\C(=O)Nc3cccnc32)c2ccccc21 [GW441756] (first compound 0.04 µM, partner dose 0.4 µM)	33	35.6	52.5	53.6	50.1	99.3	35.9	96.2	76.3	29.4	184	93.4	161	57.3	61	94.1
